# Data published in the supplement of paper PMC8256030.
# Several values for one entry are separate records, joined by “and”; a condition that tells them apart may be missing. Identical values can stand only once. The list shows a part of the results. Single values are uncertain here, since repeats match poorly.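 HEK293T cells were given each compound shortly before transfection with a reporter in which red mCherry is followed by the SARS-CoV-2 frameshift element and then GFP in the −1 frame, so GFP appears only after frameshifting.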
# Key:
# [1] = system: SARS-CoV-2 -1 PRF reporter mCherry-FSE-GFP(-1); experiment: mCherry (red) intensity as percent of control; higher = higher upstream reporter expression; settings: 10 µM; 24 h; HEK293T
# [2] = system: SARS-CoV-2 -1 PRF reporter mCherry-FSE-GFP(-1); experiment: percent effect, decrease of GFP/mCherry ratio (-1 PRF reporter) relative to controls; higher = stronger frameshift inhibition; settings: 10 µM; 24 h; HEK293T
SMILES,mCherry [1],percent effect [2]
OC(CCN1CCCCC1)(c1ccccc1)c1ccccc1 [pridinol],108%,0.043%
CN(C)CCN(Cc1ccccc1)c1ccccn1,92.8%,-2.07%
CCOC1O[C@H]([C@@H](COCc2ccccc2)OCc2ccccc2)[C@H](OCc2ccccc2)[C@H]1O (some centres undefined),96%,-1.49%
CCOCCOC(=O)/C=C/c1ccc(OC)cc1 [cinoxate],115%,2.5%
Nc1nc(N)c2nc(-c3ccccc3)c(N)nc2n1 [triamterene],96.1%,-2.34%
CC[C@H]1OC(=O)C[C@@H](O)[C@H](C)[C@@H](O[C@@H]2O[C@H](C)[C@@H](O[C@H]3C[C@@](C)(O)[C@@H](O)[C@H](C)O3)[C@H](N(C)C)[C@H]2O)[C@@H](CC=O)C[C@@H](C)C(=O)/C=C/C(C)=C/[C@@H]1CO[C@@H]1O[C@H](C)[C@@H](O)[C@@H](OC)[C@H]1OC,132%,3%
CCOCC(O)COc1ccc(NC(=O)CC[S+](C)C)cc1 (centres undefined) [suplatast tosilate],95.6%,-1.21%
CNC(=O)c1c(I)c(NC(C)=O)c(I)c(C(=O)O)c1I [iotalamic acid],119%,0.834%
Clc1cccc(Cl)c1NC1=NCCN1,93.1%,-1.02%
Cc1nc2c(C)cccn2c(=O)c1CCN1CCC(c2noc3cc(F)ccc23)CC1 [ocaperidone],97.2%,-9.52%
CCC(O)(c1ccccc1)c1cccc(C(F)(F)F)c1 (centres undefined) [flumecinol],119%,-2.87%
C[C@H]1O[C@@H](O[C@H]2CC[C@@]3(C)[C@H](CC[C@@H]4[C@@H]3C[C@@H](O)[C@]3(C)[C@@H](C5=CC(=O)OC5)CC[C@]43O)C2)C[C@H](O)[C@@H]1O[C@H]1C[C@H](O)[C@H](O[C@H]2C[C@H](O)[C@H](O[C@@H]3O[C@H](CO)[C@@H](O)[C@H](O)[C@H]3O)[C@@H](C)O2)[C@@H](C)O1 [deslanoside],13.5%,-8.3%
Cc1nccnc1N1CCCCC1,81.1%,-0.497%
Cc1c2oc3c(C)ccc(C(=O)N[C@@H]4C(=O)N[C@H](C(C)C)C(=O)N5CCC[C@H]5C(=O)N(C)CC(=O)N(C)[C@@H](C(C)C)C(=O)O[C@@H]4C)c3nc-2c(C(=O)N[C@@H]2C(=O)N[C@H](C(C)C)C(=O)N3CCC[C@H]3C(=O)N(C)CC(=O)N(C)[C@@H](C(C)C)C(=O)O[C@@H]2C)c(N)c1=O,16.5%,-19.6%
CC(C)(C)C1CCC(CC2=C(O)c3ccccc3C(=O)C2=O)CC1 (centres undefined) [buparvaquone],84.1%,-0.989%
CCCC1O[C@@H]2C[C@H]3[C@@H]4CCC5=CC(=O)C=C[C@]5(C)[C@H]4[C@@H](O)C[C@]3(C)[C@]2(C(=O)CO)O1 (some centres undefined) [Uceris],119%,-8.91%

SMILES,mCherry [1],percent effect [2]
CC1CCCCN1CCCOC(=O)c1ccccc1 (centres undefined) [piperocaine],82.4%,-1.45%
CC1=C(CC(=O)O)c2cc(F)ccc2/C1=C\c1ccc([S+](C)[O-])cc1 (centres undefined) [Sulindac],94.9%,1.91%
CCCCNC(=O)c1ccc(Cl)cc1O [buclosamide],96.2%,-3.97%
O=C1NC(=O)C(c2ccccc2)(c2ccccc2)N1 [phenytoin],96.8% and 110%,-0.981% and 2.6%
NC[C@H]1CC[C@H](C(=O)O)CC1,89.3%,-1.22%
CC1=C(/C=C/C(C)=C/C=C/C(C)=C\C(=O)O)C(C)(C)CCC1 [isotretionin],106%,-4.13%
S=C(NCCc1ccccn1)Nc1ccc(Br)cn1 [trovirdine],72.5%,0.798%
CCC(C)OC(=O)N1CCCCC1CCO (centres undefined) [icaridin],84%,0.694%
CCc1nn(CCCN2CCN(c3cccc(Cl)c3)CC2)c(=O)n1CCOc1ccccc1 [Nefazodone],38.6%,-8.97%
NC(N)=NCCCC(N)C(=O)O (centres undefined),106%,-1.51%
CS(=O)(=O)c1ccc([C@@H](O)[C@@H](CF)NC(=O)C(Cl)Cl)cc1,94.1%,-0.497%
COc1ccnc(C[S+]([O-])c2nc3cc(OC(F)F)ccc3[nH]2)c1OC (centres undefined) [Pantoprazole],96.9% and 102%,3.07% and 4.48%
CCN(CC)CCNC(=O)c1ccc(NC(C)=O)cc1 [acecainide],95.2%,-4.69%
CN(C)CC/C=C1/c2ccccc2COc2ccc(CC(=O)O)cc21 [olopatadine],131%,-12.6%
CN[C@@H]1[C@H](O[C@H]2[C@H](O[C@H]3[C@H](O)[C@@H](O)[C@H](N=C(N)N)[C@@H](O)[C@@H]3N=C(N)N)O[C@@H](C)[C@]2(O)CO)O[C@@H](CO)[C@H](O)[C@H]1O,109%,-9.13%
CCCCCCCCCCCCCCCC(=O)OC[C@@H](O)[C@H]1OC[C@H](O)[C@H]1O [sorbitan palmitate],86.8%,1.05%
